Measured values from PubChem BioAssay AID901 (National Center for Advancing Translational Sciences (NCATS), 2007).
The other results are listed elsewhere or left out. Further columns of the screen follow, without active or inactive calls. Most of these compounds were active or inconclusive in the main read-out, so they are no random draw. Potencies come from curve fits of mixed quality, noted in brackets.

Assay: qHTS Assay for Identifying the Cell-Membrane Permeable IMPase Inhibitors
Conditions: CHO-M1 cells, IP1 accumulation, HTRF TR-FRET ratio; measured here: donor channel 620 nm AC50
For `Cc1c(NC(=O)C(C)Sc2nc3ccccc3c(=O)n2CCO)c(=O)n(-c2ccccc2)n1C` (stereo unspecified), the AC50 was 31.6 µM [falling, single point]. In the case of `CCOc1ccc(-c2nnn(CC(=O)NCc3ccc4c(c3)OCO4)n2)cc1`, the AC50 is reported as 0.0631 µM [rising, full curve]. In the case of `COc1ccccc1CNC(=O)CCS(=O)(=O)c1ccc2c(c1)CCCN2C(C)=O`, the AC50 is reported as 5.01 µM [rising, partial curve, poor fit]. In the case of `CCc1ccccc1NC(=O)CSc1nnc([C@@H]2CCCN2C(=O)OC(C)(C)C)o1`, the AC50 is reported as 0.0251 µM [rising, full curve, poor fit]. With `CCc1sc(C(=O)Nc2ccc(F)cc2C)cc1C` the AC50 was 12.6 µM [rising, partial curve]. For `Cc1ccc(C(=O)Oc2ccc(C(=O)COC(=O)C3CC(=O)N(Cc4ccco4)C3)cc2)cc1` (stereo unspecified), the AC50 was 0.0794 µM [falling, partial curve]. In the case of `COC(=O)c1sc(NC(=O)C2c3ccccc3Oc3ccccc32)c(C(=O)OC)c1C`, the AC50 is reported as 35.5 µM [rising, single point]. In the case of `Cc1ccc(C(=O)Nc2ccc(C(=O)O)cc2)cc1S(=O)(=O)Nc1ccccc1`, the AC50 is reported as 6.31 µM [falling, single point]. For `CN1CCN(C(=O)c2c(NC(=O)c3ccco3)sc3c2CCC(C(C)(C)C)C3)CC1` (stereo unspecified), the AC50 was 0.0158 µM [rising, full curve, poor fit]. With `CCCn1nc(C(=O)NCC(C)(C)N2CCOCC2)c2ccccc2c1=O` the AC50 was 31.6 µM [rising, single point]. For `C=CCn1c(SCC(=O)Nc2ccc3c(c2)OCCO3)nnc1-c1ccccn1`, the AC50 was 0.0631 µM [rising, full curve, poor fit]. With `CC(=O)Nc1ccc(N2C(=O)CSC2c2ccc(F)cc2)cc1` (stereo unspecified) the AC50 was 35.5 µM [falling, single point]. With `COc1ccccc1NC(=O)c1ccc(NS(C)(=O)=O)cc1` the AC50 was 31.6 µM [rising, single point]. For `Nc1c(S(=O)(=O)O)cc(Nc2ccc(Nc3nc(Cl)nc(Nc4ccc(S(=O)(=O)O)cc4)n3)c(S(=O)(=O)O)c2)c2c1C(=O)c1ccccc1C2=O`, the AC50 was 12.6 µM [falling, partial curve]. In the case of `Nc1ccc(Nc2nc(-c3ccncc3)cs2)cc1`, the AC50 is reported as 12.6 µM [falling, single point]. With `COc1ccc(C(=O)NCCCCCC(=O)O)cc1OC` the AC50 was 31.6 µM [falling, single point]. In the case of `O=C(NCC(c1cccnc1)N1CCOCC1)Nc1ccccc1` (stereo unspecified), the AC50 is reported as 1.58 µM [falling, partial curve, poor fit]. With `O=C(CSc1nnc(-c2ccncc2)n1CC1CCCO1)NCc1ccccc1` (stereo unspecified) the AC50 was 0.02 µM [falling, full curve, poor fit]. In the case of `CCCCn1c(NCCC)nc2c1c(=O)[nH]c(=O)n2C`, the AC50 is reported as 0.01 µM [falling, full curve]. For `CCOC(=O)c1ccc(N2C(=O)C(O)=C(C(C)=O)C2c2ccc(O)c(OC)c2)cc1` (stereo unspecified), the AC50 was 12.6 µM [falling, partial curve, poor fit]. In the case of `CCOc1ccccc1NC(=O)c1nc[nH]c1C(=O)Nc1ccccc1OCC`, the AC50 is reported as 0.0501 µM [rising, full curve, poor fit]. For `Nc1c(C(=O)Nc2nc3ccccc3s2)sc2nc(-c3cccs3)ccc12`, the AC50 was 12.6 µM [rising, partial curve]. In the case of `COc1ccc(N2CCN(c3c(S(=O)(=O)c4ccccc4)cnc4ccc(OC)cc34)CC2)cc1`, the AC50 is reported as 0.02 µM [falling, full curve, poor fit]. For `c1ccc(N2CCN(c3ccccc3)C2c2cccnc2)cc1`, the AC50 was 0.794 µM [falling, full curve]. For `CCC(C)(C)C1CCc2c(sc(NC(=O)c3ccoc3C)c2C(N)=O)C1` (stereo unspecified), the AC50 was 3.98 µM [falling, partial curve]. With `Cc1c(NCc2nc3ccccc3[nH]2)c(=O)n(-c2ccccc2)n1C` the AC50 was 0.316 µM [rising, partial curve, poor fit]. With `COc1ccc(N2C(=O)CC(N3CCN(c4nc5ccccc5s4)CC3)C2=O)cc1` (stereo unspecified) the AC50 was 0.794 µM [falling, full curve]. With `OCCNc1nc2ccccc2n1CCN1CCCCC1` the AC50 was 2.51 µM [falling, single point]. With `CC(=O)N1c2ccccc2C(C)(C)C2CCC(C)CC21` (stereo unspecified) the AC50 was 0.2 µM [falling, full curve]. For `Cc1cccc(Cn2c(N3CCc4ccccc4C3)nc3c2c(=O)[nH]c(=O)n3C)c1`, the AC50 was 31.6 µM [rising, single point]. In the case of `CCOc1ccc(/C(O)=C2/C(=O)C(=O)N(CCOCCO)C2c2ccccc2)cc1` (stereo unspecified), the AC50 is reported as 20 µM [rising, partial curve, poor fit]. For `CCn1c(COc2ccc(=O)n(-c3ccccc3)n2)nnc1SCc1cccc(OC)c1`, the AC50 was 1.26 µM [rising, full curve, poor fit]. With `Cc1nc2ccccc2c(=O)n1NC(=O)c1c(O)c2c(n(CC(C)C)c1=O)CCCC2` the AC50 was 0.631 µM [falling, full curve]. In the case of `C=CCNC(=S)NNC(=O)C(CCCC)CC(C)(C)O` (stereo unspecified), the AC50 is reported as 0.158 µM [rising, single point]. In the case of `O=C(c1nc2nc(-c3ccccc3)cc(C(F)(F)F)n2n1)N1CCCCC1`, the AC50 is reported as 3.98 µM [falling, full curve, poor fit]. In the case of `COC(=O)c1c(NC(=O)c2ccc(C)cc2)sc(Cc2ccccc2)c1C`, the AC50 is reported as 0.0316 µM [rising, full curve, poor fit]. With `N#C/C(=C(/O)C(Cl)c1ccccc1)c1nc2ccccc2s1` (stereo unspecified) the AC50 was 10 µM [falling, single point]. With `O=C(NCc1cccs1)c1ccc2c(c1)OCCO2` the AC50 was 31.6 µM [rising, single point]. For `COc1ccccc1N1CCN(C(=O)c2c(-c3ccccc3Cl)noc2C)CC1`, the AC50 was 5.01 µM [rising, single point]. With `O=C(CSc1nc(Nc2ccccc2)nc(N2CCOCC2)n1)Nc1ccc2c(c1)OCCO2` the AC50 was 0.158 µM [falling, partial curve, poor fit]. With `COc1ccccc1NS(=O)(=O)c1cccc(NC(=O)NC2CCCCC2)c1` the AC50 was 0.562 µM [falling, full curve]. For `COC(=O)COc1cccc(-n2cnnn2)c1`, the AC50 was 0.631 µM [rising, full curve, poor fit]. In the case of `O=C(CCCOc1ccc(Cl)cc1Cl)N1CCN(c2ccccn2)CC1`, the AC50 is reported as 10 µM [falling, partial curve]. In the case of `Nc1c(O)ccc2c1C(=O)c1ccccc1C2=O`, the AC50 is reported as 12.6 µM [falling, partial curve]. In the case of `CCOc1ccc(N(CC(=O)Nc2cccc(OC)c2)S(=O)(=O)c2c(C)noc2C)cc1`, the AC50 is reported as 44.7 µM [rising, partial curve, poor fit]. In the case of `Nc1cc2nsnc2cc1Br`, the AC50 is reported as 12.6 µM [rising, partial curve]. With `Cc1ccc(N(C(=O)NC2CCCCC2)C2=NCCCCC2)cc1` the AC50 was 0.00126 µM [rising, full curve, poor fit]. For `COc1nc(NC2CCCCC2)nc(N2CCCCCC2)n1`, the AC50 was 0.251 µM [falling, single point]. For `CCCc1c(CC)c(=N)c2ccccc2n1C`, the AC50 was 0.0316 µM [falling, full curve, poor fit]. With `NC(=O)c1cnn2c(C(F)(F)F)cc(-c3ccccc3)nc12` the AC50 was 0.00794 µM [falling, full curve, poor fit]. With `O=C(CN1CCN(c2nc(-c3ccccc3)cs2)CC1)Nc1ccc2c(c1)OCO2` the AC50 was 1.41 µM [falling, full curve, poor fit]. With `Cc1ccc(-c2csc(NC(=O)c3cccs3)n2)cc1` the AC50 was 6.31 µM [falling, single point]. With `CC(=O)NC1=C(NC2CCS(=O)(=O)C2)C(=O)c2ccccc2C1=O` (stereo unspecified) the AC50 was 11.2 µM [falling, partial curve]. With `Cc1ccc(-c2noc(C3CCCN(C(=O)c4ccccc4)C3)n2)o1` (stereo unspecified) the AC50 was 2 µM [falling, full curve]. With `COc1ccc(-c2nc3ccccc3n2Cc2ccccc2)cc1` the AC50 was 22.4 µM [rising, single point]. For `Cc1ccccc1NS(=O)(=O)c1ccc(C)c(C(N)=O)c1`, the AC50 was 0.01 µM [falling, full curve, poor fit]. With `COc1ccc(OC)c(C(=O)c2ccccc2)c1` the AC50 was 0.631 µM [falling, single point]. With `CCCCNc1nc(-c2ccccc2)cc(C(F)(F)F)c1C(N)=O` the AC50 was 0.251 µM [falling, full curve]. For `Cc1nc(C)c(C(=O)Nc2nc3c(C)cccc3s2)o1`, the AC50 was 5.01 µM [falling, single point]. With `CCN(CC(=O)NC1CCS(=O)(=O)C1)c1nc(-c2ccccc2)nc2ccccc12` (stereo unspecified) the AC50 was 0.0126 µM [rising, full curve, poor fit]. In the case of `CCOc1ccccc1OCCCOc1ccc(C)cc1Cl`, the AC50 is reported as 6.31 µM [rising, full curve, poor fit]. In the case of `O=C(CCCCCn1c(=S)[nH]c2cc3c(cc2c1=O)OCO3)N1CCN(C(=O)c2ccco2)CC1`, the AC50 is reported as 31.6 µM [rising, single point]. With `O=C(NCc1ccccc1)c1ccc(COCC(F)(F)F)o1` the AC50 was 22.4 µM [falling, single point]. In the case of `O=C(CCS(=O)(=O)c1cc(Br)cc2c1N(C(=O)C1CC1)CC2)Nc1ccc(F)cc1`, the AC50 is reported as 0.178 µM [rising, full curve, poor fit]. With `Fc1ccc(CSc2nncn2NCc2ccccc2)cc1` the AC50 was 0.398 µM [rising, partial curve]. In the case of `COc1cc(NC(=O)CN2C(=O)NC(C)(CC(C)C)C2=O)cc(OC)c1` (stereo unspecified), the AC50 is reported as 0.0126 µM [falling, single point].
